Values from PubChem BioAssay AID1508597 (Cure First, 2020)

Test: 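Knock-downs altering ovarian cancer cell survival with or without PARP inhibitor rucaparib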 (primary screen)
System: human ovarian carcinoma lines grown from tumours: OCI-P5x (papillary serous) and OCI-C5x (clear cell)
Reagent: siRNA pool against human genes, 1.25 pmol siRNA per well
Time to read-out: 72 h or 96 h, depending on the cell culture
Conditions: rucaparib 20 µM (about IC30) or vehicle, present until read-out
Rucaparib or vehicle: Vehicle
Cell line: OCI-P5x (serous)
Measured: 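Luminescent ATP-based viability assay read 72 or 96 h after transfection, depending on culture, given as normalised percent viability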
Scale: viability, normalised: higher = more viable cells remaining
Call rule: 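Active when normalised viability falls below 80 percent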
Calls: active = viability under 80%; inactive = viability 80% or more
Shown is a random part of the about 2,100 reagents, under one of the conditions tested. 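Calls flag viability under 80% in either arm, not effects specific to rucaparib; the reference for percent is not stated.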 Some reagents were tested in more than one well and are listed for each. The record does not give: the 100% reference.

What did the screen give for RARA (GeneID 5914), technical replicate 1?
viability, normalised (%): 57.5; call: active

How did the screen score RARA (GeneID 5914), technical replicate 2?
viability, normalised (%): 72; call: active

How did the screen score RARA (GeneID 5914), technical replicate 3?
viability, normalised (%): 82.6; call: inactive

How did the screen score HIF1A (GeneID 3091), technical replicate 1?
viability, normalised (%): 78.4; call: active

Which result is listed for HIF1A (GeneID 3091), technical replicate 2?
viability, normalised (%): 91.6; call: inactive

With HIF1A (GeneID 3091), technical replicate 3, what was measured?
viability, normalised (%): 77.2; call: active

For STK4 (GeneID 6789), technical replicate 1, what was measured?
viability, normalised (%): 63.1; call: active

Which result is listed for STK4 (GeneID 6789), technical replicate 2?
viability, normalised (%): 65.9; call: active

How did the screen score STK4 (GeneID 6789), technical replicate 3?
viability, normalised (%): 78; call: active

How did the screen score SOX15 (GeneID 6665), technical replicate 1?
viability, normalised (%): 39.5; call: active

What is on record for SOX15 (GeneID 6665), technical replicate 2?
viability, normalised (%): 50.2; call: active

With SOX15 (GeneID 6665), technical replicate 3, what does the deposit list?
viability, normalised (%): 63.5; call: active

With ALG8 (GeneID 79053), technical replicate 1, what does the deposit list?
viability, normalised (%): 70.5; call: active

How did the screen score ALG8 (GeneID 79053), technical replicate 2?
viability, normalised (%): 66; call: active

How did the screen score ALG8 (GeneID 79053), technical replicate 3?
viability, normalised (%): 70.1; call: active

What did the screen give for ENPP1 (GeneID 5167), technical replicate 1?
viability, normalised (%): 59.2; call: active

For ENPP1 (GeneID 5167), technical replicate 2, how do the results read?
viability, normalised (%): 59.1; call: active

For ENPP1 (GeneID 5167), technical replicate 3, what was measured?
viability, normalised (%): 71.7; call: active

How did the screen score ALPK2 (GeneID 115701), technical replicate 1?
viability, normalised (%): 96.7; call: inactive

With ALPK2 (GeneID 115701), technical replicate 2, how do the results read?
viability, normalised (%): 115; call: inactive

With ALPK2 (GeneID 115701), technical replicate 3, what does the deposit list?
viability, normalised (%): 107; call: inactive

With CXXC1 (GeneID 30827), technical replicate 1, what does the deposit list?
viability, normalised (%): 71.3; call: active

How did the screen score CXXC1 (GeneID 30827), technical replicate 1?
viability, normalised (%): 43; call: active

What is on record for CXXC1 (GeneID 30827), technical replicate 2?
viability, normalised (%): 50.5; call: active

What did the screen give for CXXC1 (GeneID 30827), technical replicate 2?
viability, normalised (%): 60.9; call: active

Which result is listed for CXXC1 (GeneID 30827), technical replicate 3?
viability, normalised (%): 74.9; call: active

What did the screen give for CXXC1 (GeneID 30827), technical replicate 3?
viability, normalised (%): 53.4; call: active

What did the screen give for TRIM16 (GeneID 10626), technical replicate 1?
viability, normalised (%): 73.4; call: active

With TRIM16 (GeneID 10626), technical replicate 2, what does the deposit list?
viability, normalised (%): 78.3; call: active

Which result is listed for TRIM16 (GeneID 10626), technical replicate 3?
viability, normalised (%): 66.9; call: active

What is on record for MARK3 (GeneID 4140), technical replicate 1?
viability, normalised (%): 86.1; call: inactive

What did the screen give for MARK3 (GeneID 4140), technical replicate 2?
viability, normalised (%): 94.9; call: inactive

What did the screen give for MARK3 (GeneID 4140), technical replicate 3?
viability, normalised (%): 83.4; call: inactive

Copied from the list.
Under “viability, normalised (%)”, ENPP1 (GeneID 5167), technical replicate 3 is entered as 71.7
STK4 (GeneID 6789), technical replicate 1, call → active
Under “call”, STK4 (GeneID 6789), technical replicate 3 has active
For “viability, normalised (%)”, ALG8 (GeneID 79053), technical replicate 3 shows 70.1
